The record followed here is PMC12629419.

Protein sequences, listed by entry. Tags and fused reporters are not part of them. Lines headed by an entry give the natural chain unless they say otherwise; changes in a name come on top. Chains listed by the source or under a name are the forms on record and can include a tag or linker.
UniProt O96871: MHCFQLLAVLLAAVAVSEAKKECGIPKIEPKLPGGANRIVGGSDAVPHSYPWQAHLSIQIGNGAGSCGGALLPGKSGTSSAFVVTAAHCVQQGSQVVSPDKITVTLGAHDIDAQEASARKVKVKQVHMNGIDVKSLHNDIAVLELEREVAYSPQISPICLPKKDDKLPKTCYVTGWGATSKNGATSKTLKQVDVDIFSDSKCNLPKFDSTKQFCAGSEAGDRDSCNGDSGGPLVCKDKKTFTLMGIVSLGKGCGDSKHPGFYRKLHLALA
Type II cytokeratin 8 (CK8) in Caco-2 cells (P05787-2, form named): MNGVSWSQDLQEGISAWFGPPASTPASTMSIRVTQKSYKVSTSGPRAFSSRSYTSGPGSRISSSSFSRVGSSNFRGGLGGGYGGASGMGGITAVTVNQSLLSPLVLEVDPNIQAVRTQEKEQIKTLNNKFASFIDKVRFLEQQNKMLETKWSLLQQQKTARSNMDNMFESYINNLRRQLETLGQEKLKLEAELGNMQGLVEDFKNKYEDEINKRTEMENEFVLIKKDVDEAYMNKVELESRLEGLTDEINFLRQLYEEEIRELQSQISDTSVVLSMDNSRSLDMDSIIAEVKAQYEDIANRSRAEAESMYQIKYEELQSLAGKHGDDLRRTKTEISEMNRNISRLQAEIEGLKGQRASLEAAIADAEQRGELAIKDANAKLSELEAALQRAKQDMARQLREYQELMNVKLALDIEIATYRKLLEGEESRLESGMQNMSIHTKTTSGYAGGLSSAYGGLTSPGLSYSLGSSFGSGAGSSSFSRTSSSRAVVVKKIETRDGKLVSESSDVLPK

These are yes or no findings as the source states them, for the method shown. Binding seen in cells or lysates may run through a third protein. Binding can be weak; no strength is given.

Assay [1] addresses Recombinant Trichinella spiralis serine proteinase (rTsSPc) with a GST-tag (Trichinella spiralis) (UniProt O96871). Nature of the assay: pull-down; GST-tagged rTsSPc (or GST tag protein) pre-immobilised on GST resin, 2 h at 4 C; washed with binding buffer (4.2 mM Na2HPO4, 2 mM KH2PO4, 140 mM NaCl, 10 mM KCl); incubated with lysate of normal Caco-2 cells for 2 h at 4 C; Western blot with anti-rTsSPc serum, anti-GST and anti-CK8; only the target purified. In general terms: In western blotting, separated proteins are transferred to a membrane and probed.

The target in assay [2] is Recombinant Trichinella spiralis serine proteinase (rTsSPc) with a His-tag (Trichinella spiralis) (UniProt O96871). Nature of the assay: co-IP; Caco-2 monolayer incubated with His-tagged rTsSPc (20 ug/ml) at 37 C, 5% CO2 for 2 h; lysed in DISC buffer (30 mM Tris-HCl pH 8.0, 120 mM NaCl, 10% glycerol, 1% Triton X-100); Protein A/G agarose with mouse anti-rTsSPc serum or normal IgG, 4 h; Western blot; only the target purified.

In the case of “Type II cytokeratin 8 (CK8) in Caco-2 cells (from UniProt P05787-2 1-511)”, the binding entry in assay [1] and in assay [2] was “binds” throughout.
